Among all 52,000 sequences or so, about 210 (0.4%) were called active.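 Rule for the calls: active = gene whose silencing raises cell survival under the drug, median off-target-corrected z-score across its silencing RNAs 2 or more; inactive = the rest.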 The list shows a part of the results.
Test: Resistance to Poly (ADP-Ribose) Polymerase inhibitor: Gene Identification via Genome-wide siRNA Screen
Conditions: mouse BRCA2 R2336H ES cells, olaparib, CellTiter-Glo viability; hits give high values
How it was run: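 Genome-wide siRNA screen (3 siRNAs/gene, 20 nM) in mouse ES cells carrying hypomorphic BRCA2 R2336H; olaparib 500 nM added 48 h post-transfection, CellTiter-Glo viability 72 h later. Normalized to plate-median negative control; MAD z-scores, gene median, seed-adjusted.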
For GGCCGUCGGAAAAAGGAUGTT against Abcf1, the z-score was inactive: -0.905.
In the case of GGGCCACAGUUUCAGCUUCTT against H6pd, the z-score is reported as inactive: 1.71.
For “GCACUAGCAGGAUUCAUUGTT against C030002O17Rik”, the z-score was inactive: 1.4.
For “GGAUUUGAACUCAGAUGUUTT against A430057M04Rik”, the z-score was inactive: -1.58.
For GGCUCAUAUUUGCUACUGUTT against Gprc5d, the z-score was inactive: 0.608.
For GGAAGGAUCCGUGAUGAAGTT against BC049730, the z-score was inactive: -0.875.
With GGACACAGACACCAAACAATT against Gcn5l2 the z-score was inactive: 2.6.
With CGAAACAUCCCUAUGCUCUTT against Lsm3 the z-score was inactive: -0.163.
With GGCUGUGGAUUUCUCUCUGTT against Kng1 the z-score was inactive: 0.0352.
For GGAGCCAGAACCUGAAAUUTT against Ankrd1, the z-score was inactive: -0.369.
For GUUGUAUUUCUUUGCCUUCTT against Olfr1098, the z-score was inactive: -1.01.
With “GGACAUUUGACACACAACATT against 1200016D23Rik” the z-score was inactive: -0.466.
For “GGAUGUGCAAGAGAAAUUCTT against 3010001K23Rik”, the z-score was inactive: 0.717.
For GGAGAUCAUGUCCAAGUACTT against Bk, the z-score was inactive: -0.973.
In the case of “GGUGACUUCCACUCUAACUTT against 4933406N12Rik”, the z-score is reported as inactive: 1.09.
With GCUCAUAGAGCAAAUACGUTT against Sall1 the z-score was inactive: -0.498.
In the case of “CCUGAAAGAUAACAAGUGGTT against 6530404N21Rik”, the z-score is reported as inactive: -2.39.
For GGGUGCUAAUCUGAAAGGUTT against Kctd9, the z-score was inactive: 0.995.
For GCCGACGAGUAUACUAGACTT against Odz3, the z-score was inactive: -0.0279.
In the case of GGAAUUAUCUGAGCCUGUGTT against BC021381, the z-score is reported as inactive: -2.61.
With CCAAGUGUUACCUCACUACTT against Cables2 the z-score was inactive: -0.782.
With GCACUAUCCACAUGCACAUTT against Olfr1281 the z-score was inactive: 0.84.
In the case of GGUAAAACAGAGGAGUCGGTT against AI480556, the z-score is reported as inactive: 1.54.
For GGAUGGAAAACUCAUCAUCTT against Gnb1, the z-score was inactive: -2.74.
With CCAAGAAAUGUAUGCCAUUTT against Slc26a2 the z-score was inactive: 0.433.
In the case of GCCUGAUUAGCAAGUGAUGTT against Evx1, the z-score is reported as inactive: -0.0221.
For GGUUGCUAAUAGGGAAGAUTT against Rxrip110, the z-score was inactive: -0.809.
For “GCUCCUUUAGCAUCUUAAUTT against 1700009P13Rik”, the z-score was inactive: -0.217.
In the case of GGGUGUGACCGAAGCUCAUTT against D10Jhu81e, the z-score is reported as inactive: 1.06.
In the case of GGAACUGAAAUUCAGUUGGTT against Oazin, the z-score is reported as inactive: -0.825.
For CCAAGAGUUGUCAAUAUAATT against Crisp3, the z-score was inactive: -0.639.
For “CCACACAGUUAAUUGAAAUTT against D13Wsu123e”, the z-score was inactive: 0.0298.
For “GGACUGCCUUAUGCUACGATT against 2900045N06Rik”, the z-score was inactive: -0.461.
For GCAGACCAUAUUACAAGUUTT against Herc3, the z-score was inactive: -1.45.
With GGAUAACUUGAUCCACCACTT against Olfr382 the z-score was inactive: 0.715.
In the case of GGAGAACGAAAGGAUGAAATT against Rpusd4, the z-score is reported as inactive: -1.09.
In the case of GGAUUUAGUGUAAUGCCAATT against Pfn4, the z-score is reported as inactive: -0.0915.
With GGAGAUCGAUGGAGACUUCTT against Sftpa1 the z-score was inactive: -2.69.
For “GGCAGAGAUUAGAUCUCAGTT against 1700025D03Rik”, the z-score was inactive: -0.468.
In the case of CCUUUAACCCUCAACUCAATT against H47, the z-score is reported as inactive: -0.11.
For GGUAAUUAGUGAAAUGGUUTT against Pum2, the z-score was inactive: 0.653.
With CCCAGUUGGUGUUUAUAUATT against Ppp3cb the z-score was inactive: 1.36.
With CGAUUUGGCCUUGAUGGGUTT against Wtip the z-score was inactive: -0.561.
In the case of CGGUUACAGGUGAAAUCCUTT against Sval1, the z-score is reported as inactive: -1.62.
With GGAUUUUGAGAAGAACAAUTT against Tceb3 the z-score was inactive: 0.251.
In the case of GCUGCUUCUAAACUUUGUATT against BC038059, the z-score is reported as inactive: 0.0695.
With GGCAGGUUUUUGACAACUUTT against Fxyd4 the z-score was inactive: -0.598.
With GCGCAAAGGGUUUGUUAAGTT against Mogat1 the z-score was inactive: 0.0768.
In the case of GCAAAUGCUGUCAGUGGGATT against Cd59b, the z-score is reported as inactive: 0.44.
For GGUGUCUUUACGUCUCCCATT against Neto1, the z-score was inactive: 1.28.
For “GGUCGUCUUUUAAGAGUUUTT against 2010109K11Rik”, the z-score was inactive: 0.648.
For “GGGACUAUUUCAACAAAGUTT against 1700013B16Rik”, the z-score was inactive: 0.433.
With GGAGUCUGUGAACAAUCUCTT against Mx2 the z-score was inactive: 0.404.
In the case of CCCUGUUUAACUAUUACAATT against Tmc2, the z-score is reported as inactive: -0.732.
With GGAGAGAAAAACACCUAUGTT against Prlr the z-score was inactive: -0.897.
With “GGAAACGAUGAAGAACAAATT against 4933427D06Rik” the z-score was inactive: -0.835.
With GGAGUCAAGUACGAUGUGATT against C8b the z-score was inactive: -1.87.
In the case of GCUGGUAUGGAUUGUUUCGTT against Ccng2, the z-score is reported as inactive: 0.25.
With GGUAUAGUAGUGGAAGAUUTT against Vdp the z-score was inactive: 0.586.
With GGCUGAUUAUCACAGCAAGTT against Ablim2 the z-score was inactive: 0.145.
With GGUACAAAUCGAUUGUCAATT against Fdps the z-score was inactive: 0.431.
In the case of GGUACACCAAGGCUUGCUATT against Adck4, the z-score is reported as inactive: -0.932.
In the case of GGAAAAGAAGUGACCUGCUTT against Anapc4, the z-score is reported as inactive: -1.98.
With GGCCUGGAAGUCAUAUCUGTT against Tcfcp2l3 the z-score was inactive: 1.08.
In the case of “CGCACAGUACCUUUACCUCTT against A630052C17Rik”, the z-score is reported as inactive: -0.415.
In the case of GCCAUGGAAAAUUUCCUCCTT against Olfr357, the z-score is reported as inactive: 0.495.
For GCUAAGUACAACUUCACAATT against Olfr303, the z-score was inactive: -1.1.
For GCUAACAUGUGUGCAGACCTT against Csf2, the z-score was inactive: -1.22.
With GGAAUUGGAUGAAAUGCCATT against BC024479 the z-score was inactive: 1.16.
In the case of GGCUAUAAAGAAGAGUCUGTT against Adhfe1, the z-score is reported as inactive: -0.0804.
In the case of GGUUCUUUCAGAAAAUGGATT against Csen, the z-score is reported as inactive: 0.321.
In the case of GGAUGAGAUCAACUUCCUCTT against Krt2-7, the z-score is reported as inactive: 0.139.
In the case of GGAAGUAUCUGGAAAGGGATT against Usp2, the z-score is reported as inactive: 0.595.
For GGUAUCAGAGACAACCAAATT against Chad, the z-score was inactive: -1.26.
With GUAUGAACCUAACACAUUCTT against V1rh17 the z-score was inactive: -0.987.
In the case of GGUUUGUAGAGGCAUCAAGTT against Snph, the z-score is reported as inactive: 0.512.
For “GGAGAUAAAGGGAACACCATT against 2410001C21Rik”, the z-score was inactive: 2.97.
In the case of CGCCUAAGAAUAUGAAAAATT against Nek3, the z-score is reported as inactive: -0.954.
With CCAGGAUCAAAGAACUUAUTT against Olfr1424 the z-score was inactive: 0.117.
In the case of “GGAGGCUGAAAAGUUCCGGTT against 1110007C09Rik”, the z-score is reported as inactive: -0.754.
In the case of GGACAGUCAAAAAUUGUUCTT against Cyp7b1, the z-score is reported as inactive: 0.0197.
For GGAGAAGGAGAAACAGAAATT against Tmepai, the z-score was inactive: -1.84.
With GGAGAUGGAUCACUUAAAUTT against Cdh6 the z-score was inactive: 0.706.
With CCUAAUCUUCGUGCUUUACTT against Minpp1 the z-score was inactive: 0.968.
For “GGCGAAGUAUCUGAUGAGGTT against A930027K05Rik”, the z-score was inactive: 1.
In the case of GCUUAUCGUAAAGUAGCACTT against Dnajb7, the z-score is reported as inactive: 1.37.
In the case of GGAACUGAUAUCAUGUACATT against Slc25a5, the z-score is reported as inactive: 0.748.
In the case of GGGAUGAAGUCCUGGAUAATT against Atp6v1g1, the z-score is reported as inactive: -1.87.
For CGAUCUUCCGCUCUGACUCTT against Gm226, the z-score was inactive: -1.34.
For “GCACUGUCGCAUCAUCAGATT against D230025D16Rik”, the z-score was inactive: 1.44.
In the case of GGGUGUUUGGUUGUGAUCUTT against Snx26, the z-score is reported as inactive: -1.2.
With GCUACUAUUCCAUCCAUCATT against Apg4b the z-score was inactive: -0.363.
For GGACCAUGUGAUAAUAUCGTT against Als2, the z-score was inactive: 0.858.
In the case of GCUGAAGACCGACUACAAGTT against Cnih, the z-score is reported as inactive: 0.86.
For GGAGAUUGGAAGAAGAAAATT against Sash1, the z-score was inactive: -1.28.
In the case of GCCUAAAAACUCUAAAUCUTT against Mut, the z-score is reported as inactive: -0.00594.
For GGCAAGAGUGUUUUCAUACTT against Insl6, the z-score was inactive: -1.16.
In the case of GCCCUGUUUUGAUCCAUGCTT against Slitrk3, the z-score is reported as inactive: -0.0319.
In the case of GGGAGACCCAAUGUCAUCATT against Dtx3, the z-score is reported as inactive: 1.19.
With GGAUUUUAAAAUUCCCAGUTT against Usp33 the z-score was inactive: -0.0193.
With “CCUCUGAGUGGAACACCUATT against 6330577E15Rik” the z-score was inactive: -1.53.
For “GGAGAGAAGAAAAAAAGAATT against 5830434P21Rik”, the z-score was inactive: -0.124.
For “GGCUACAGCAGCAAUUACATT against 3110050K21Rik”, the z-score was inactive: 1.32.
For CCUGAGGAACUCCAACCAATT against Ltbp4, the z-score was inactive: -0.161.

— PubChem BioAssay AID1347423 (Functional Genomics Laboratory (NCATS/FGL), 2020)
